PubChem BioAssay AID652243 | Drosophila RNAi Screening Center, 2013
The screen tested about 24,000 reagents; this is an unselected part of those that have a named target and a result. Of all reagents, 246 (1%) were called active. 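Plates not normalised; calls are printed but the firefly/Renilla ratio behind them is not deposited; fold cut for lowering reported inconsistently.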 The raw values are shown without normalisation. Entries without a mark were called inactive. Names joined by + are all predicted targets of the reagent. No sequences are given here. Not given: the amount of reagent.

- Purpose: 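Fly regulators of androgen-dependent reporter output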 (primary screen)
- System: Drosophila S2R+ cells
- Knock-down reagent: long dsRNA against Drosophila genes
- Timing: 72 h (48 h, then 24 h hormone)
- Treatment: synthetic androgen R1881 at 10 nM for 24 h
- Measured: 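Firefly light from an androgen-responsive reporter and Renilla control light per well, raw and unnormalised, for each of two replicates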
- Direction: firefly reporter light: higher = more light from androgen-responsive reporter; Renilla control light: higher = more constitutive control signal (cell number, transfection)
- Call rule: 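Across duplicate plates, a knock-down whose log firefly/Renilla ratio shifted a set fold down or up from the GFP/LacZ control mean was a hit; the downward cut appears as both 1.5 and 3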
- Meaning of the calls: active = hit: reporter lowered or raised; inactive = no hit

CG14434 [DRSC17927]
- firefly reporter light, replicate 1: 2.50e5
- firefly reporter light, replicate 2: 3.06e5
- Renilla control light, replicate 1: 2.59e6
- Renilla control light, replicate 2: 3.40e6

robo3 [DRSC00374]
- firefly reporter light, replicate 1: 93991
- firefly reporter light, replicate 2: 73933
- Renilla control light, replicate 1: 7.65e5
- Renilla control light, replicate 2: 8.46e5

robo3 [DRSC00684]
- firefly reporter light, replicate 1: 1.04e5
- firefly reporter light, replicate 2: 81795
- Renilla control light, replicate 1: 8.21e5
- Renilla control light, replicate 2: 9.11e5

CG7352 [DRSC16233]
- firefly reporter light, replicate 1: 1.47e5
- firefly reporter light, replicate 2: 1.32e5
- Renilla control light, replicate 1: 2.36e6
- Renilla control light, replicate 2: 2.20e6

CG10182 [DRSC14202]
- firefly reporter light, replicate 1: 1.54e5
- firefly reporter light, replicate 2: 2.02e5
- Renilla control light, replicate 1: 1.94e6
- Renilla control light, replicate 2: 1.99e6

CG10182 [DRSC25451]
- firefly reporter light, replicate 1: 1.07e6
- firefly reporter light, replicate 2: 9.22e5
- Renilla control light, replicate 1: 1.80e6
- Renilla control light, replicate 2: 1.86e6

CG10182 [DRSC39074]
- firefly reporter light, replicate 1: 7.42e5
- firefly reporter light, replicate 2: 4.80e5
- Renilla control light, replicate 1: 1.50e6
- Renilla control light, replicate 2: 1.70e6

drn + CG43675 [DRSC15147]
- firefly reporter light, replicate 1: 1.41e5
- firefly reporter light, replicate 2: 1.54e5
- Renilla control light, replicate 1: 1.65e6
- Renilla control light, replicate 2: 1.97e6

spz4 [DRSC02410]
- firefly reporter light, replicate 1: 3.86e5
- firefly reporter light, replicate 2: 2.90e5
- Renilla control light, replicate 1: 1.43e6
- Renilla control light, replicate 2: 1.78e6

spz4 [DRSC27274]
- firefly reporter light, replicate 1: 2.26e5
- firefly reporter light, replicate 2: 2.57e5
- Renilla control light, replicate 1: 6.90e5
- Renilla control light, replicate 2: 6.82e5

CG10254 [DRSC14153]
- firefly reporter light, replicate 1: 32068
- firefly reporter light, replicate 2: 26975
- Renilla control light, replicate 1: 5.27e5
- Renilla control light, replicate 2: 3.07e5

CG10254 [DRSC29495]
- firefly reporter light, replicate 1: 9.17e5
- firefly reporter light, replicate 2: 9.45e5
- Renilla control light, replicate 1: 1.15e6
- Renilla control light, replicate 2: 1.15e6

Targets above whose gene name starts with S or s (2):
spz4 [DRSC02410]
- firefly reporter light, replicate 1: 3.86e5
- firefly reporter light, replicate 2: 2.90e5
- Renilla control light, replicate 1: 1.43e6
- Renilla control light, replicate 2: 1.78e6

spz4 [DRSC27274]
- firefly reporter light, replicate 1: 2.26e5
- firefly reporter light, replicate 2: 2.57e5
- Renilla control light, replicate 1: 6.90e5
- Renilla control light, replicate 2: 6.82e5
